{
  "source": "PubChem BioAssay AID743479",
  "about": "(Broad Institute, 2014)",
  "assay": "inhibitors of EWS/FLI-driven NR0B1 reporter expression, dose response, luciferase luminescence, A673 cells, dry powder (AID 743479)",
  "conditions": "viability-normalised luminescence; at 38 µM (top of the series);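 active = fitted curve crosses 35% inhibition of luciferase signal below 10 µM, corrected for cell viability; inconclusive = no clear call, values can overlap the other calls; inactive = activity opposite to the expected decrease, otherwise the rest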",
  "note": "Inconclusive means that the source gave no clear call.",
  "data": [
    {"smiles": "CC(C)(O)CCc1ccc(O)c2c(=O)c3c(O)c4c(cc3oc12)O[C@H]1OC=C[C@@]41O", "values": [
      {"measurement": "activity change, negative = inhibition", "value": "inconclusive: -41.1%"}
    ]}
  ]
}
